Measurements reported in PubChem BioAssay AID1259405 (NCATS, 2018).
In all, the deposit lists about 50,000 reagents; this is a random part of them. About 4,000 of them (8%) count as active. 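Mouse siRNA library applied to hamster cells; one well for each siRNA.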 Reagents against one gene are numbered here. Reagent sequences are not shown.

- Purpose: 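Knock-downs that lift recombinant protein yield in hamster ovary cells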 (primary screen)
- Cells: Chinese hamster CHO-K1 ovary cells with stable secreted eGFP expression
- Reagent: single siRNA against mouse genes, 0.8 pmol siRNA per well (2 µl of 400 nM stock)
- Timing: 3 days
- Measurement: 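Per-well intracellular GFP measured by laser scanning cytometry, plus viability from ATP luminescence, each relative to plate median of non-targeting control wells, in %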
- Direction: GFP, % of control: higher = more GFP per well, higher productivity; viability (ATP), % of control: higher = more viable cells (more ATP)
- Active means: 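Called active when intracellular GFP, relative to negative control, is at or above 120%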

| target gene | reagent | GFP, % of control | viability (ATP), % of control | activity call |
| --- | --- | --- | --- | --- |
| Zfp53 | 1 | 43.1 | 52.4 | inactive |
| Zfp53 | 2 | 64.5 | 72.7 | inactive |
| Zfp53 | 3 | 85.3 | 82.6 | inactive |
| Eef1e1 | 1 | 75.7 | 82.9 | inactive |
| Eef1e1 | 2 | 73.1 | 86.2 | inactive |
| Ckap5 | 1 | 47.1 | 61.8 | inactive |
| Ckap5 | 2 | 67.2 | 75.1 | inactive |
| Ckap5 | 3 | 80.2 | 75.9 | inactive |
| Dsg3 | 1 | 57.6 | 74.5 | inactive |
| Dsg3 | 2 | 75.2 | 73.8 | inactive |
| Med12 | 1 | 79.3 | 86.4 | inactive |
| Med12 | 2 | 105 | 146 | inactive |
| Ywhah | 1 | 130 | 116 | active |
| Ywhah | 2 | 56.1 | 61.5 | inactive |
| Ywhah | 3 | 49.7 | 64.1 | inactive |
| Zfp871 | 1 | 87.2 | 74.8 | inactive |
| Zfp871 | 2 | 55.5 | 56.6 | inactive |
| Zfp871 | 3 | 96.7 | 93.9 | inactive |
| Ncoa5 | 1 | 41.1 | 45.3 | inactive |
| Ncoa5 | 2 | 40.7 | 28.8 | inactive |
| Ncoa5 | 3 | 103 | 83.1 | inactive |
| Or2a51 | 1 | 58.3 | 75.9 | inactive |
| Or2a51 | 2 | 97.2 | 72.2 | inactive |
| Or2a51 | 3 | 144 | 153 | active |
| Igf1r | 1 | 58.3 | 40.5 | inactive |
| Tex24 | 1 | 97.1 | 110 | inactive |
| Tex24 | 2 | 73.3 | 74.5 | inactive |
| Tex24 | 3 | 76 | 73.5 | inactive |
| 2810032G03Rik | 1 | 79.7 | 74 | inactive |
| 2810032G03Rik | 2 | 125 | 63.7 | active |
| 2810032G03Rik | 3 | 73.9 | 72.1 | inactive |
| Sfmbt1 | 1 | 124 | 62.1 | active |
| Sfmbt1 | 2 | 69.5 | 54.9 | inactive |
| Sfmbt1 | 3 | 141 | 104 | active |
| Sfmbt1 | 4 | 68.1 | 68.2 | inactive |
| Sfmbt1 | 5 | 75 | 95 | inactive |
| Sfmbt1 | 6 | 61.4 | 61.9 | inactive |
| Aplnr | 1 | 64.5 | 71.3 | inactive |
| Aplnr | 2 | 36.3 | 56 | inactive |
| Aplnr | 3 | 69.1 | 69.1 | inactive |
| Slc38a9 | 1 | 39.9 | 42.2 | inactive |
| Slc38a9 | 2 | 107 | 93.4 | inactive |
| Slc38a9 | 3 | 100 | 109 | inactive |
| Cdc42bpb | 1 | 77.9 | 74.6 | inactive |
| Flcn | 1 | 42.9 | 55.2 | inactive |
| Flcn | 2 | 41.2 | 51.1 | inactive |
| Flcn | 3 | 107 | 89.2 | inactive |
| Ptbp3 | 1 | 62.5 | 95.9 | inactive |
| Ptbp3 | 2 | 77.3 | 93.7 | inactive |
| Psmc2 | 1 | 67.9 | 64.1 | inactive |
| Psmc2 | 2 | 96.3 | 104 | inactive |
| Psmc2 | 3 | 101 | 83.9 | inactive |
| Hpse | 1 | 147 | 107 | active |
| Hpse | 2 | 79.7 | 91 | inactive |
| Hpse | 3 | 136 | 94.3 | active |
| H2-T24 | 1 | 34.6 | 45.1 | inactive |
| H2-T24 | 2 | 86.9 | 79.2 | inactive |
| H2-T24 | 3 | 62.4 | 66.1 | inactive |
| S1pr5 | 1 | 70.1 | 75.2 | inactive |
| S1pr5 | 2 | 94 | 66.9 | inactive |
| S1pr5 | 3 | 90.7 | 92.7 | inactive |
| Rragc | 1 | 102 | 57.4 | inactive |
| Rragc | 2 | 96.2 | 63.5 | inactive |
| Rragc | 3 | 76 | 71.7 | inactive |
| Paxbp1 | 1 | 76.2 | 81.4 | inactive |
| Paxbp1 | 2 | 75.5 | 59.6 | inactive |
| Paxbp1 | 3 | 74.4 | 91.5 | inactive |
| Coasy | 1 | 94 | 80.2 | inactive |
| Aqr | 1 | 251 | 63.5 | active |
| Aqr | 2 | 79.9 | 61.1 | inactive |
| Aqr | 3 | 74 | 61.4 | inactive |
| Acer2 | 1 | 90.7 | 115 | inactive |
| Acer2 | 2 | 60.6 | 55.4 | inactive |
| Acer2 | 3 | 122 | 102 | active |
| Atp6v1g2 | 1 | 84.3 | 85.8 | inactive |
| Atp6v1g2 | 2 | 30.1 | 29.3 | inactive |
| Atp6v1g2 | 3 | 54.9 | 79 | inactive |
| Pla2g2a | 1 | 72.1 | 46.5 | inactive |
| Pla2g2a | 2 | 77.2 | 68.2 | inactive |
| Pla2g2a | 3 | 67.3 | 74.7 | inactive |
| Tars2 | 1 | 70.8 | 52.1 | inactive |
| Tars2 | 2 | 88.3 | 94.4 | inactive |
| Tars2 | 3 | 99.1 | 94.6 | inactive |
| Prss46 | 1 | 88.6 | 58.4 | inactive |
| Prss46 | 2 | 88.1 | 86.3 | inactive |
| Prss46 | 3 | 57 | 82.8 | inactive |

Reagents listed above with an active call (9):
| target gene | reagent | GFP, % of control | viability (ATP), % of control | activity call |
| --- | --- | --- | --- | --- |
| Ywhah | 1 | 130 | 116 | active |
| Or2a51 | 3 | 144 | 153 | active |
| 2810032G03Rik | 2 | 125 | 63.7 | active |
| Sfmbt1 | 1 | 124 | 62.1 | active |
| Sfmbt1 | 3 | 141 | 104 | active |
| Hpse | 1 | 147 | 107 | active |
| Hpse | 3 | 136 | 94.3 | active |
| Aqr | 1 | 251 | 63.5 | active |
| Acer2 | 3 | 122 | 102 | active |
